## Library screening results

Amino acid sequences for entries named in this document (tags omitted).
UniProt E9BF75, entry or part of it: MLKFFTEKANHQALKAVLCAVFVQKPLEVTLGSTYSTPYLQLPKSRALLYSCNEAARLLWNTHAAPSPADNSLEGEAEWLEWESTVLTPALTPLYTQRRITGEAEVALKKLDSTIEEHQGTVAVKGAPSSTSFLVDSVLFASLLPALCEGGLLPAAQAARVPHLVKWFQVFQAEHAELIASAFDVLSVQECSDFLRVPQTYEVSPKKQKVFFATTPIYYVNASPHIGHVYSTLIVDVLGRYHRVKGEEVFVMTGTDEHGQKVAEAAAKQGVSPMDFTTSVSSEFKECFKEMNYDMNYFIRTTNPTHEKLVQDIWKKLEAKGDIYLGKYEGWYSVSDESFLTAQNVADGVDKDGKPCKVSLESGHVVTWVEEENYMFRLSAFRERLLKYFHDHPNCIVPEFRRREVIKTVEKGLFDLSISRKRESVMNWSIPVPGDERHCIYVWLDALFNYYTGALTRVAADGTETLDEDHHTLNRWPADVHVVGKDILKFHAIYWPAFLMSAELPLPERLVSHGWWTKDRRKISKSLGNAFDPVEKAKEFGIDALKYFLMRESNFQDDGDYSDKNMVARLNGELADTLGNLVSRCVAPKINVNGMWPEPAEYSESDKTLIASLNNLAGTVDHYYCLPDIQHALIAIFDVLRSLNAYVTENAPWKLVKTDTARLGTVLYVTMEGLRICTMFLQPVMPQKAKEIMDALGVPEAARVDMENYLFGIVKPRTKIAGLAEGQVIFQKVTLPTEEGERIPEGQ

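Methionyl-tRNA synthetase (putative), Leishmania donovani (UniProt E9BF75). Primary screen of methionyl-tRNA synthetase; the read-out is not stated. The test concentration is not given. The values are filed as inhibition. About 68,000 compounds were tested under these conditions; 0.035% (about 24) showed 50% or more at least once.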

Results are percentages, as filed. The controls that fix the scale are not given in the record; negative values are as filed. Compounds were drawn at random from those tested, without regard to their results.

{"compound": "O=C(O)c1ccnc(-c2ccnc(COc3ccc(Cl)cc3)n2)c1", "Inhibition": 14.12}
{"compound": "Cc1nn(C)c(C)c1C1CCCN1C(=O)c1cc[nH]n1", "stereo": "centres unmarked", "Inhibition": 16.67}
{"compound": "CC(C)CCN1C2(CCN(C(=O)CN(C)C)C2)c2ccccc2S1(=O)=O", "stereo": "centres unmarked", "Inhibition": 13.42}
{"compound": "Cc1ccc(CNC(=O)NC2CCN(CC(F)F)CC2)cc1", "Inhibition": 9.253}
{"compound": "Cc1cnc(N2CC[C@@H]3CN(CCC(C)C)S(=O)(=O)[C@@H]3CC2)nc1", "Inhibition": 15.96}
{"compound": "COCC(C)N(Cc1ccccc1OC)C(=O)c1cc(C)[nH]c(=O)c1", "stereo": "centres unmarked", "Inhibition": 5.882}
{"compound": "c1ccc2c(NCC3(N4CCOCC4)CCSC3)ncnc2c1", "stereo": "centres unmarked", "Inhibition": 7.88}
{"compound": "CC(Cn1cccn1)NC(=O)NCCc1cnn(C)c1", "stereo": "centres unmarked", "Inhibition": 7.981}
{"compound": "CCc1nnc(SC2CCCN(c3cnn(C)c3)C2=O)n1C", "stereo": "centres unmarked", "Inhibition": 10.06}
{"compound": "COc1ccccc1C(C)Nc1ncc(C(N)=O)cc1Cl", "stereo": "centres unmarked", "Inhibition": 11.56}
{"compound": "N#CC1CCN(C(=O)CN2CC(c3ccccc3)CC2=O)CC1", "stereo": "centres unmarked", "Inhibition": 14.63}
{"compound": "NC(=O)c1ccc(S(=O)(=O)NC(=O)COc2ccc3c(c2)CCC3)cc1", "Inhibition": 14.72}
{"compound": "NC(=O)[C@@H]1CCCN1C(=O)c1csc(-c2ccc(C(F)(F)F)cc2)n1", "Inhibition": 14.83}
{"compound": "CS(=O)(=O)NC1CCc2[nH]c(=O)ccc2C1", "stereo": "centres unmarked", "Inhibition": 0.5495}
{"compound": "c1cc(CN2CCO[C@H]3[C@H](OCC4CCOCC4)CC[C@@H]32)co1", "Inhibition": 13.44}
{"compound": "OC(COCc1ccccc1)CSc1nnc(C2CC2)n1C1CC1", "stereo": "centres unmarked", "Inhibition": 7.447}
{"compound": "Cc1nonc1C1CCCN1Cc1ccc(C(=O)Nc2nccs2)cc1", "stereo": "centres unmarked", "Inhibition": 8.964}
{"compound": "Cc1cccc(NC(=O)[C@@H]2CCCN2Cc2nc(C)c(C)o2)n1", "Inhibition": 11.67}
{"compound": "O=C([C@H]1CC[C@@H]2[C@@H](CCN2C2CCCCC2)O1)N1CCOCC1", "Inhibition": 12.64}
{"compound": "Cn1cc(CN2CC[C@H]3O[C@H](C(=O)Nc4cnccn4)CC[C@H]32)cn1", "Inhibition": 11.04}
{"compound": "CCOc1cc(C)nc(N2CCN(Cc3nccn3CC)CC2)n1", "Inhibition": 7.116}
{"compound": "CC(C)N1CCN(C(=O)C(C)n2cncn2)CC1", "stereo": "centres unmarked", "Inhibition": 16.52}
{"compound": "Cc1nnc(N(CCC#N)CCC#N)s1", "Inhibition": 17.3}
{"compound": "Cc1nnc2n1CC(CNCc1nc(-c3ccsc3)no1)CC2", "stereo": "centres unmarked", "Inhibition": 10.51}
{"compound": "Cc1ccccc1C(=O)NCc1ccc(N2CCNC(=O)C2)cc1", "Inhibition": 14.13}
{"compound": "CN1CCN(C(=O)c2ccccc2)CC(Cc2cc(N(C)C)ncn2)C1", "stereo": "centres unmarked", "Inhibition": 23.81}
{"compound": "Cc1nnc(CN2C[C@H](NC(=O)CC3CCCC3)[C@@H](C3CC3)C2)s1", "Inhibition": 6.406}
{"compound": "COc1ccc(C(CO)NC(=O)Nc2cccc(F)c2)cc1", "stereo": "centres unmarked", "Inhibition": 16.39}
{"compound": "c1ccc(Cc2nnc(CN3CCCC(Cn4cncn4)C3)o2)cc1", "stereo": "centres unmarked", "Inhibition": 13.22}
{"compound": "CCOc1ccccc1OC1CCN(C(=O)c2nc(=O)[nH][nH]2)CC1", "Inhibition": 7.143}
{"compound": "CCNC(=O)NC(=O)CNC(C)(C)c1ccc2c(c1)OCCO2", "Inhibition": 21.67}
{"compound": "Cc1cc(C2CCC2)nc(NCC(C)(C)N2CCOCC2)n1", "Inhibition": 2.687}
{"compound": "O=C1CO[C@@H]2CN(S(=O)(=O)c3ccccc3)C[C@H]2N1CC1CC1", "Inhibition": 18.83}
{"compound": "Cc1cnccc1N1CCN(c2nccc(CCC(F)(F)F)n2)CC1", "Inhibition": 5.16}
{"compound": "COCCN1CCC2(CC1)CC(Nc1ccc(C)nn1)CO2", "stereo": "centres unmarked", "Inhibition": 14.49}

Repeated from the top, 3 entries:

- O=C(O)c1ccnc(-c2ccnc(COc3ccc(Cl)cc3)n2)c1 : 14.12%
- Cc1nn(C)c(C)c1C1CCCN1C(=O)c1cc[nH]n1 (centres unmarked) : 16.67%
- CC(C)CCN1C2(CCN(C(=O)CN(C)C)C2)c2ccccc2S1(=O)=O (centres unmarked) : 13.42%

The values are deposited in ChEMBL (CHEMBL3988442, “University of Dundee, Small-Polar-MMV Screening Library” (2021)).